Test results reported in article PMC8038949, “Structural basis for the DNA-binding activity of human ARID4B Tudor domain”.
pKd: −log10 of the molar value. For some of these results: The comparison behind a weaker result is the experiment's own reference, which may not be listed here. Protein sequences can lack the tags named with them. For some of these results: Construct, isoform or probe ends are uncertain for at least one entry.

Columns and labels:
[1] = target: T1, ARID4B TD121 (Homo sapiens) (UniProt Q4LE39); assay: EMSA; conditions: 50 mM Tris-HCl pH 7.6, 50 mM NaCl (buffer A); EMSA 4 C, 12 uM DNA, 8% native gel in TBE; recombinant protein; residues 1-121
T1 sequence (looked up): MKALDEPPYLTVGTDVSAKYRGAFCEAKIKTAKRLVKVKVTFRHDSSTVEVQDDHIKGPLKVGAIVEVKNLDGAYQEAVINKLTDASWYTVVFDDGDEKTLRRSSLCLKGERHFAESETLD

[2] = target: T2, ARID4B TD151 (Homo sapiens) (UniProt Q4LE39); assay: ITC; conditions: 50 mM Tris-HCl pH 7.6, 50 mM NaCl (buffer A); ITC 25 C; recombinant protein; residues 1-151
T2 sequence (looked up): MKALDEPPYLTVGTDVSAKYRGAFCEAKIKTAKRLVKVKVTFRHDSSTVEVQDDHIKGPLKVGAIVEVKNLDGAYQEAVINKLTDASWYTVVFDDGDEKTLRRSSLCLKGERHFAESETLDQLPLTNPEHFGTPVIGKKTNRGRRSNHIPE

Row | Sequence | binding result [1] | pKd [2]
1 | CTCAGGTCAAAGGTCACG / TCGTGACCTTTGACCTGA [dsDNA1] | binds more weakly | –
2 | CGCTTTAAAAAATTTCGG (double strand) [dsA-tract] | – | 5.10
3 | CGCAATTATATATTACGG (double strand) [dsAT18] | – | 5.10
4 | CGCACCGATCCGTGACGG (double strand) [dsGC18] | – | 4.80
